Measured values as given in PubChem BioAssay AID624305 (National Center for Advancing Translational Sciences (NCATS), 2012).
Inconclusive means that the source gave no clear call. Such entries were picked first, then a sample of the others. Where the call is inconclusive, the potency comes from a doubtful curve fit. Activity calls are given as the source filed them. Calls come from the whole dose curve; as a rule, active = well fitted activation curve with a large enough effect; inconclusive = small, poorly fitted or top-dose-only effect; inactive = no such curve, though single readings can be large or run the other way.

experiment: qHTS assay for re-activators of p53 using a Luc reporter: Hit Validation; conditions: p53-responsive luciferase reporter cells, luminescence, H1299 line expressing heat-sensitive Ala138Val p53; series mostly up to 46.1 µM; activation: at the top concentration; note: nearly all actives have a fitted effect of over 75% in size; for activation: 0% is about no effect
Procedure, shortened: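 H1299 (p53-null) cells stably carrying p53-A138V and a BP100-luciferase reporter, 1000 cells/well, treated 24 h at 37 deg C. Compounds at several concentrations, 1:5 dilution; nocodazole control; luminescence read after 10 min with detection reagent.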
Potency is the fitted concentration of half-maximal effect.

SMILES	activation	Potency
N#CC(Cc1ccccc1)(Cc1ccccc1)C(=O)NN	inactive: -87.5%	
COc1cccc(/C=N/Nc2cc(-n3nc(C)cc3-c3ccccc3)ncn2)c1O		inconclusive: 20.6 µM [activator, single point]
CCOC(=O)c1c(NC(=O)C2COc3ccccc3O2)sc2c1CCN(Cc1ccccc1)C2 (centres undefined)	inactive: -4.69%	
c1ccc(-c2cn3c4c(sc3n2)CCCC4)cc1		inconclusive: 0.13 µM [activator, full curve, poor fit]
Cc1cc(NC(=O)c2c(F)c(F)c(F)c(F)c2F)no1	inactive: 13%	
CSC1=NCCN1C(=O)c1ccc(Br)o1	inactive: -91.1%	
O=S(=O)(N/N=C/c1ccccc1OCc1ccc(Cl)cc1)c1ccccc1	inactive: -58.3%	
CN=c1scc(-c2cccs2)n1/N=C/c1ccc(O)c(O)c1O		inconclusive: 1.16 µM [activator, partial curve, poor fit]
COc1ccc(NC(=O)COC(=O)C23CC4CC(CC(O)(C4)C2)C3)cc1Cl		inconclusive: 36.6 µM [activator, single point]
CN1CCN(c2ncnc3c2cnn3-c2ccc(Cl)cc2)CC1		inconclusive: 2.91 µM [activator, partial curve, poor fit]
CCC(=O)Nc1ccc2oc(-c3cccc(C)c3)nc2c1		active: 0.0731 µM
O=C(Nc1nnc(-c2ccccc2F)s1)C1CCN(S(=O)(=O)c2ccc(Cl)cc2)CC1		inconclusive: 46.1 µM [activator, single point]
Nc1nc2ccc(N3CCOCC3)cc2s1	inactive: 34.4%	
O=C(CSC1=NCCS1)N1CCN(c2ccccc2)CC1		inconclusive: 29.1 µM [activator, partial curve, poor fit]
COC(=O)CCC(=O)COc1ccccc1C#N		inconclusive: 46.1 µM [activator, single point]
O=c1oc2ccccc2cc1-c1cn(-c2ccccc2)c(=S)[nH]1		inconclusive: 0.058 µM [activator, partial curve, poor fit]
Clc1ccc(-c2nnc(N3CCCC3)nn2)cc1		active: 0.731 µM
CNC(=S)N/N=C(\C)c1ccc(N2CCOCC2)cc1		inconclusive: 9.2 µM [activator, partial curve, poor fit]
COc1ccc(N2C(=O)CC(Cc3ccc(Br)cc3)C2=O)cc1 (centres undefined)	inactive: -1.56%	
COc1cccc(/C=N/NC(=O)CCc2n[nH]c(=O)[nH]c2=O)c1O	inactive: 5.21%	

SMILES	activation	Potency
Clc1ccc(-c2nnc(SCc3ccon3)o2)c(Cl)c1		active: 0.366 µM
COc1ccc(/C(N)=N/OC(=O)c2cccs2)cc1		active: 5.17 µM
Cc1ccc(-c2nc3ccccc3o2)cc1NC(=O)c1ccc2c(c1)OCO2		inconclusive: 11.6 µM [activator, partial curve, poor fit]
CC(=O)c1cc2c(C)c(C(=O)c3ccccc3)oc2cc1O		active: 0.411 µM
Cc1cc(NC(c2cccnc2)c2ccc3cccnc3c2O)no1 (centres undefined)	inactive: 128%	
CN1CCN(C(=O)c2cc3ccccc3cc2O)CC1	inactive: 17.7%	
O=C(Nc1ccccc1Cl)c1ccc2c(=O)n3c(nc2c1)CCC3		inconclusive: 1.84 µM [activator, full curve, poor fit]
COC(=O)c1c(C)[nH]c(C(=O)/C=C/c2ccccc2)c1C		inconclusive: 5.8 µM [activator, partial curve]
C/C(=N/NC(=S)Nc1ccccc1)c1ccc2c(c1)OCO2	inactive: -85.9%	
CCOC(=O)CC(=O)Nc1ccc(C(=O)OCC)cc1	inactive: 33.3%	
Cc1ccc(NC(=S)NC(=O)C2CCCC2)c(Br)c1		active: 3.66 µM
Cc1cc(NC(=O)c2ccc3c(c2)OCCO3)no1		inconclusive: 2.59 µM [activator, single point]
O=C(CSc1nnc(-c2ccc3c(c2)OCCO3)o1)N1CCCC1		active: 7.31 µM
O=[N+]([O-])c1ccc(Cl)cc1Sc1nc2ccccc2o1		inconclusive: 29.1 µM [activator, single point]
COc1ccccc1-c1cc(C(=O)Nc2cc(C)on2)no1		active: 16.4 µM
COc1ccccc1N=Nc1[nH]c2ccc(C)cc2c1O		inconclusive: 20.6 µM [activator, single point]
Cc1ccc(C(=O)NC(=C(Cl)Cl)S(=O)(=O)c2ccccc2)cc1		inconclusive: 20.6 µM [activator, single point]
CCCC(=O)NC(c1cccs1)c1cc([N+](=O)[O-])c2cccnc2c1O (centres undefined)	inactive: 14.6%	
Cc1cc(C(=O)N2CCN(c3ccccc3Cl)CC2)c(C)o1		active: 29.1 µM

Looked up above:
In Potency, `COc1ccccc1N=Nc1[nH]c2ccc(C)cc2c1O` is entered as inconclusive: 20.6 µM [activator, single point]
In activation, `Cc1cc(NC(c2cccnc2)c2ccc3cccnc3c2O)no1` (centres undefined) is entered as inactive: 128%
In Potency, `Cc1ccc(-c2nc3ccccc3o2)cc1NC(=O)c1ccc2c(c1)OCO2` is entered as inconclusive: 11.6 µM [activator, partial curve, poor fit]
